In publication PMC9988210:
No constants are given. Whether binding was seen depends on the method and setting. In cells and extracts the contact can be indirect. Some results given as binding are weak or reduced against the parent protein; the word gives no strength. Sequences can lack the tags named with a protein.

T1: C-terminal STREP-tagged PSKH2 (human) (UniProt Q96QS6)
T1 sequence: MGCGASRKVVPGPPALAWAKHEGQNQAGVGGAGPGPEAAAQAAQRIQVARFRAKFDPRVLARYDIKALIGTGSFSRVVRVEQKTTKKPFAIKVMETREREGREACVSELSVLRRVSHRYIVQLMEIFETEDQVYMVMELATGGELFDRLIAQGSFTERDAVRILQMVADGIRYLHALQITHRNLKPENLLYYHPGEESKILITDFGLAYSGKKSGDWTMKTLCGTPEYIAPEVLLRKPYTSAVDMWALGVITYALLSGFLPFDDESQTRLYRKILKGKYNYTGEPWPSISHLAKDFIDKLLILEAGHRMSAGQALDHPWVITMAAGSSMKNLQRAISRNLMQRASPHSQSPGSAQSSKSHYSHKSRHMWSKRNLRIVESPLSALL

T2: N-terminal STREP-tagged PSKH2 (human) (UniProt Q96QS6)
T2 sequence: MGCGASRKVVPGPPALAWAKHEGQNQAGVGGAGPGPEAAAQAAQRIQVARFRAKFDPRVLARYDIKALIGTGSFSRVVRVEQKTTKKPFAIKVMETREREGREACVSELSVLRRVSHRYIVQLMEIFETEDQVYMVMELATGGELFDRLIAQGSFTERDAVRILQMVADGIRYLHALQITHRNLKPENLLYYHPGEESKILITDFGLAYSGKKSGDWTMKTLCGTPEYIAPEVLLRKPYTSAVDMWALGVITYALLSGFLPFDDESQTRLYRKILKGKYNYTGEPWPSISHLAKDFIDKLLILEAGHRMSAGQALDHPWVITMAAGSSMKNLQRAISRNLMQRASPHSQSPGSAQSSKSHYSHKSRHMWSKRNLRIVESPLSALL

T3: FLAG-tagged Cdc37 (UniProt Q16543)
T3 sequence: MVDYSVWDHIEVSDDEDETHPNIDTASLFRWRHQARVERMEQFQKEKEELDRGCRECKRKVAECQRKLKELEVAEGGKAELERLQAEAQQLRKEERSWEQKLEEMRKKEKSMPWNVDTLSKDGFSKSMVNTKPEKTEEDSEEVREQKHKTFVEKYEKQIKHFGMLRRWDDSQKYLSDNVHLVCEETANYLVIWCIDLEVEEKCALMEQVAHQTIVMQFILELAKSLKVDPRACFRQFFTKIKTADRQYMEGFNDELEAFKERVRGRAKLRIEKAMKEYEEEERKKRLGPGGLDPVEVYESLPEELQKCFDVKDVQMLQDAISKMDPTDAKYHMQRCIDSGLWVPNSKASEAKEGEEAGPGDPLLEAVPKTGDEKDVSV

T4: FLAG-tagged FKBP5 (UniProt Q13451)
T4 sequence: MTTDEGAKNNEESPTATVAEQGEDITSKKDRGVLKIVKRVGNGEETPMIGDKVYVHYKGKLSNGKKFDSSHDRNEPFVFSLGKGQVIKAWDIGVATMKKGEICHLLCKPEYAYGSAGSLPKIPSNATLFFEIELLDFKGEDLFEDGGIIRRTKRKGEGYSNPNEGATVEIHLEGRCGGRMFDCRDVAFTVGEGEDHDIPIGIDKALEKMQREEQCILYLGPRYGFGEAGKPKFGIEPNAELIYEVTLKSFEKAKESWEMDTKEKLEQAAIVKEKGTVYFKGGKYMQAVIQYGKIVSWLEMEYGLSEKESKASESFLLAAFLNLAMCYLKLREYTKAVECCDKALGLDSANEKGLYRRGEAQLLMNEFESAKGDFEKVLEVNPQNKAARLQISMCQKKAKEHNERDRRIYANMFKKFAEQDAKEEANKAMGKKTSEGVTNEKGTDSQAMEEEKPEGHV

B1: Geranylgeranyl transferase type-2 subunit beta (RABGGTB) (protein, UniProt P53611 1-331)
chain: MGTPQKDVIIKSDAPDTLLLEKHADYIASYGSKKDDYEYCMSEYLRMSGIYWGLTVMDLMGQLHRMNREEILAFIKSCQHECGGISASIGHDPHLLYTLSAVQILTLYDSINVIDVNKVVEYVKGLQKEDGSFAGDIWGEIDTRFSFCAVATLALLGKLDAINVEKAIEFVLSCMNFDGGFGCRPGSESHAGQIYCCTGFLAITSQLHQVNSDLLGWWLCERQLPSGGLNGRPEKLPDVCYSWWVLASLKIIGRLHWIDREKLRNFILACQDEETGGFADRPGDMVDPFHTLFGIAGLSLLGEEQIKPVNPVFCMPEEVLQRVNVQPELVS
B2: Cdc37 (protein, UniProt Q16543 1-378)
chain: MVDYSVWDHIEVSDDEDETHPNIDTASLFRWRHQARVERMEQFQKEKEELDRGCRECKRKVAECQRKLKELEVAEGGKAELERLQAEAQQLRKEERSWEQKLEEMRKKEKSMPWNVDTLSKDGFSKSMVNTKPEKTEEDSEEVREQKHKTFVEKYEKQIKHFGMLRRWDDSQKYLSDNVHLVCEETANYLVIWCIDLEVEEKCALMEQVAHQTIVMQFILELAKSLKVDPRACFRQFFTKIKTADRQYMEGFNDELEAFKERVRGRAKLRIEKAMKEYEEEERKKRLGPGGLDPVEVYESLPEELQKCFDVKDVQMLQDAISKMDPTDAKYHMQRCIDSGLWVPNSKASEAKEGEEAGPGDPLLEAVPKTGDEKDVSV
B3: FKBP5 (protein, UniProt Q13451 1-457)
chain: MTTDEGAKNNEESPTATVAEQGEDITSKKDRGVLKIVKRVGNGEETPMIGDKVYVHYKGKLSNGKKFDSSHDRNEPFVFSLGKGQVIKAWDIGVATMKKGEICHLLCKPEYAYGSAGSLPKIPSNATLFFEIELLDFKGEDLFEDGGIIRRTKRKGEGYSNPNEGATVEIHLEGRCGGRMFDCRDVAFTVGEGEDHDIPIGIDKALEKMQREEQCILYLGPRYGFGEAGKPKFGIEPNAELIYEVTLKSFEKAKESWEMDTKEKLEQAAIVKEKGTVYFKGGKYMQAVIQYGKIVSWLEMEYGLSEKESKASESFLLAAFLNLAMCYLKLREYTKAVECCDKALGLDSANEKGLYRRGEAQLLMNEFESAKGDFEKVLEVNPQNKAARLQISMCQKKAKEHNERDRRIYANMFKKFAEQDAKEEANKAMGKKTSEGVTNEKGTDSQAMEEEKPEGHV
B4: C-terminal STREP-tagged PSKH2 (protein, UniProt Q96QS6 1-385)
chain: MGCGASRKVVPGPPALAWAKHEGQNQAGVGGAGPGPEAAAQAAQRIQVARFRAKFDPRVLARYDIKALIGTGSFSRVVRVEQKTTKKPFAIKVMETREREGREACVSELSVLRRVSHRYIVQLMEIFETEDQVYMVMELATGGELFDRLIAQGSFTERDAVRILQMVADGIRYLHALQITHRNLKPENLLYYHPGEESKILITDFGLAYSGKKSGDWTMKTLCGTPEYIAPEVLLRKPYTSAVDMWALGVITYALLSGFLPFDDESQTRLYRKILKGKYNYTGEPWPSISHLAKDFIDKLLILEAGHRMSAGQALDHPWVITMAAGSSMKNLQRAISRNLMQRASPHSQSPGSAQSSKSHYSHKSRHMWSKRNLRIVESPLSALL

Tests used:
[1] = target: T1, C-terminal STREP-tagged PSKH2 (human); experiment: co-IP; Strep-TactinXT affinity precipitation of N- or C-terminal Strep-tagged PSKH2 from HEK-293T lysate (50 mM Tris-HCl pH 7.4, 150 mM NaCl, 0.1% Triton X-100, 1% DDM), immunoblot of endogenous partners
[2] = target: T2, N-terminal STREP-tagged PSKH2 (human); experiment: as above
FLAG-tagged Cdc37 = target: T3, FLAG-tagged Cdc37; experiment: co-IP; FLAG-tagged HSP90, Cdc37 or FKBP5 as bait on anti-FLAG resin, co-expressed with PSKH2-Strep in HEK-293T, eluted with SDS-PAGE sample buffer, immunoblot
FLAG-tagged FKBP5 = target: T4, FLAG-tagged FKBP5; experiment: as above

| Binder | binding [1] | binding [2] | binding (FLAG-tagged Cdc37) | binding (FLAG-tagged FKBP5) |
| --- | --- | --- | --- | --- |
| B1 | binds | – | – | – |
| B2 | binds | binds | – | – |
| B3 | binds | binds | – | – |
| B4 | – | – | binds | binds |
